Experimental data from PubChem BioAssay AID2685 (National Center for Advancing Translational Sciences (NCATS), 2010).
This is one part of the list. These are further read-outs of the screen, such as a control signal, another cell line or another target. No call is given for them. Compounds called inactive in the main read-out are mostly missing here. Potencies come from curve fits of mixed quality, noted in brackets.

Test: qHTS Assay for Lipid Storage Modulators in Drosophila S3 Cells;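 on cell number change: cells counted by Cell Tracker Red CMTPX staining in the red channel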
Conditions: BODIPY lipid droplet fluorescence, 18-24 h; for cell number change: measured here: cell count max response, cells fed with added oleic acid
How it was run: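 Laser-scanning cytometry quantifies lipid droplet accumulation (500–530 nm total intensity; droplet/cell object ratio) in oleic acid-fed (400 uM added) Drosophila S3 cells treated with a concentration series. 20 uM Triacsin C defined 100% inhibition.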

[1] = measured here: cell number channel AC50, cells fed with added oleic acid
[2] = measured here: lipid fluorescence (Fed channel) AC50, cells fed with added oleic acid

Row | SMILES | cell number change [%] | AC50 [1] | AC50 [2]
1 | C#CCSc1nc2[nH]ncc2c(=O)[nH]1 | -0.47 | – | –
2 | Cc1ccc(S(=O)(=O)N2CCCC2C(=O)O)s1 (centres undefined) | -8.27 | 7.31 µM [falling, single point] | 29.1 µM [falling, single point]
3 | COC(=O)c1onc(-c2c(Cl)cccc2Cl)c1C(=O)OC | 20.3 | – | 0.0058 µM [rising, full curve, poor fit]
4 | c1ccc(OCCN2CCN(C(c3ccccc3)c3ccccc3)CC2)cc1 | -25.9 | – | –
5 | O=C(CN1C(=O)NC2(CCCCC2)C1=O)N(Cc1ccco1)Cc1cccs1 | 1.2 | – | –
6 | COc1cccc(NC(=O)CN(C)C(=O)c2cccnc2Nc2cccc(C(F)(F)F)c2)c1 | -26.7 | – | –
7 | O=C(CN1CCCCC1)Nc1ccc(NC(=O)c2ccccc2Cl)cc1Cl | 0.559 | – | 5.8 µM [rising, partial curve]
8 | CN(C)c1cccc(C(=O)NC2CCCCCC2)c1 | -13.8 | – | 4.11 µM [rising, single point]
9 | C/C(=N\NC(=O)c1nnn(-c2nonc2N)c1CN(C)c1ccccc1)c1cccc(O)c1 | -25.7 | – | 32.6 µM [falling, single point]
10 | O=C(NCc1cccs1)c1csc2ccccc12 | – | 0.731 µM [falling, full curve] | 6.51 µM [falling, single point]
11 | Cn1c(=O)c2c(ncn2CC2OCCO2)n(C)c1=O | 24.3 | 6.51 µM [rising, single point] | 6.51 µM [rising, single point]
12 | Cc1cc(C)c2c(N)c(C(=O)c3ccccc3)oc2n1 | 1.56 | – | –
13 | Fc1ccc(C2CC(c3ccco3)=NN2c2ccccc2)cc1 (centres undefined) | -65.1 | 0.0651 µM [falling, full curve, poor fit] | 0.291 µM [falling, full curve]
14 | Cc1ccc(NC(=O)CN(C)C(=O)CSc2ncc(C(F)(F)F)cc2Cl)cc1 | 20.4 | – | 20.6 µM [rising, single point]
15 | Cc1nc(-c2ccc(S(=O)(=O)NCC3CCN(C(=O)OC(C)(C)C)CC3)s2)cs1 | -3.07 | – | 4.61 µM [rising, single point]
16 | CCc1ccccc1-n1c(SCC(=O)c2c(N)n(C3CC3)c(=O)[nH]c2=O)nnc1N1CCOCC1 | 18.9 | – | 6.51 µM [falling, single point]
17 | CCc1ccc(/C=N/NC(=O)Cc2ccc(OC)c(OC)c2)s1 | 7.23 | – | –
18 | CC12CCC(c3c1nc1ccccc1[n+]3[O-])C2(C)C (centres undefined) | -11.6 | – | 2.06 µM [rising, partial curve]
19 | Cc1cc(C)c(S(=O)(=O)NCCc2cc3ccc(C)c(C)c3[nH]c2=O)c(C)c1 | -1.35 | – | 29.1 µM [falling, single point]
20 | COC(=O)c1ccc(NC(=O)Cn2nc(-c3ccncc3)nc2SCC(=O)Nc2nccs2)cc1 | – | – | 29.1 µM [rising, single point]
21 | O=C(CCn1c(=O)oc2ccccc21)NCCN1CCc2ccccc2C1 | 18.9 | – | –

Some values from the results shown:
Under cell number change [%], O=C(CCn1c(=O)oc2ccccc21)NCCN1CCc2ccccc2C1 reads 18.9
Under AC50 [2], CCc1ccccc1-n1c(SCC(=O)c2c(N)n(C3CC3)c(=O)[nH]c2=O)nnc1N1CCOCC1 reads 6.51 µM [falling, single point]

(list continues)

Row | SMILES | cell number change [%] | AC50 [1] | AC50 [2]
22 | Cc1cccc(C(=O)NC(=S)N2CCN(C(=S)NC(=O)c3cccc(C)c3)CC2)c1 | 8.31 | – | 3.66 µM [rising, full curve]
23 | Cc1ccc(COC(=O)c2cccc(S(=O)(=O)N3CCCCC3)c2)cc1 | 75 | 6.51 µM [falling, single point] | –
24 | CCOC(=O)c1nn(-c2ccc(F)cc2)c(=O)cc1OCC(=O)Nc1ccc(F)c(F)c1 | 26.1 | 0.0058 µM [rising, full curve, poor fit] | –
25 | CC(NC(=O)c1ccc(C#N)cc1)C1CC2CCC1C2 (centres undefined) | -3.48 | – | –
26 | O=C(Oc1cccc(C(=S)N2CCOCC2)c1)c1ccccc1 | 6.58 | – | –
27 | CCOc1ccccc1NC(=O)c1cnccn1 | 19.6 | – | 29.1 µM [rising, single point]
28 | CCOc1ccccc1N=Cc1c(O)n(C)c(=O)n(C)c1=O | -12.5 | – | 0.00461 µM [falling, full curve, poor fit]
29 | CCOC(=O)c1ccccc1NC(=O)c1ccccc1SC | 184 | 3.66 µM [rising, full curve] | 7.31 µM [rising, partial curve]
30 | CC(C)Oc1cccc(-c2nnc(SCC(=O)Nc3ccc4c(c3)OCCO4)n2N)c1 | -18.6 | – | 18.4 µM [falling, single point]
31 | COc1ccccc1-n1cnnc1SCC(=O)Nc1cccc(S(N)(=O)=O)c1 | 3.78 | – | 29.1 µM [rising, single point]
32 | C=CCn1c(-c2cccc(S(=O)(=O)N(CC)CC)c2)n[nH]c1=S | – | – | 0.731 µM [rising, single point]
33 | CCCCN(C(=O)c1ccc(-c2ccc([N+](=O)[O-])cc2)o1)c1c(N)n(CCCC)c(=O)[nH]c1=O | -32.7 | 18.4 µM [falling, single point] | –
34 | CCOc1ccc2nc(N(CCCN(C)C)C(=O)c3ccc(S(=O)(=O)N4CCc5ccccc5C4)cc3)sc2c1 | 25.3 | – | 16.4 µM [rising, single point]
35 | O=S1(=O)CC2N=C(N(Cc3c(F)cccc3Cl)c3ccccc3F)SC2C1 (centres undefined) | 4.64 | – | –
36 | COCC(C)NC(=O)c1ccc2c(c1)S(=O)(=O)c1ccccc1C2=O (centres undefined) | -12.1 | – | 20.6 µM [falling, single point]
37 | Cc1cc(C)cc(C(=O)Nc2ccncc2)c1 | 1.66 | – | 29.1 µM [rising, single point]
38 | Cn1cc(CC(=O)N2CCN(c3ccccc3F)CC2)c2ccccc21 | 8.96 | – | 2.06 µM [rising, partial curve]
39 | Cc1ccc(N/C=C/C(=O)c2cccs2)cc1C | 29.5 | – | 4.11 µM [rising, partial curve]
40 | O=C(NCC1CCCO1)C12CN(Cc3ccccc3)CC1C(c1cccc([N+](=O)[O-])c1)=NO2 (centres undefined) | – | – | 6.51 µM [falling, single point]
41 | CCOC(=O)COn1c(=O)c[n+]([O-])c2ccccc21 | -6.27 | – | 0.13 µM [falling, single point]
42 | NNC(=O)CNS(=O)(=O)c1ccc([N+](=O)[O-])cc1 | – | – | 0.366 µM [rising, single point]
